This experiment is described as follows: qHTS Assay for Modulators of Lamin A Splicing. The conditions noted are these: HeLa LMNA splicing GFP/RFP minigene ratio, 48 h. Put shortly:
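S3 HeLa cells stably expressing lamin A-EGFP splicing minigene plus DsRed2, 600 cells/well, 48 h compound exposure at 37C. Laser-scanning cytometry; analysed as GFP (500-530 nm)/RFP (575-640 nm) total intensity ratio; 0.5% DMSO vehicle.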
Background: qHTS replaces the single test concentration by a dilution series.

[1] abbreviates: measured here: RFP viability control channel.
The mark [2] stands for this setting: measured here: GFP splicing reporter channel.

This passage reports AC50 results from PubChem BioAssay AID1487 (National Center for Advancing Translational Sciences (NCATS), 2009).

Each structure is given as a SMILES string. The list shows a part of the results. These are further read-outs of the screen, such as a control signal, another cell line or another target. No call is given for them. Compounds called inactive in the main read-out are mostly missing here. The note in brackets gives the kind of curve behind each potency; many fits are weak.

Consider `CCCCCCOc1ccc(C(CC(N)=O)C(=O)O)cc1` (centres undefined), for which, under setting [1], the concentration at half-maximal activity (AC50) (commonly the concentration at which the activity in the assay is half-maximal) is 1.26 µM [falling, single point].
Take `O=c1oc2ccccc2c(Nc2ccccc2O)c1[N+](=O)[O-]`: the AC50 under setting [2] was 2.51 µM [falling, partial curve, poor fit] and the half-maximal activity concentration (AC50) under setting [1] is 0.126 µM [falling, full curve, poor fit].
As for `Cc1ccc(C(C2C(=O)CC(C)(C)CC2=O)C2C(=O)CC(C)(C)CC2=O)s1`, under setting [1], the concentration at half-maximal activity (AC50) is 0.355 µM [falling, single point].
The same measure, in the same setting: the figure for `CCOc1ccc(C(=O)NC(=S)Nc2ccccn2)cc1[N+](=O)[O-]` is 22.4 µM [falling, single point].
Consider `COc1cccc(C(=O)Nc2ccc3nc(N4CCN(c5ncccn5)CC4)cc(C)c3c2)c1OC`, for which the concentration at half-maximal activity (AC50) under setting [2] is 35.5 µM [falling, single point] and the AC50 under setting [1] was 31.6 µM [falling, single point].
`O=c1c(Sc2ccccc2)c(C(F)(F)F)[nH]n1-c1ccccc1`: the half-maximal activity concentration (AC50) under setting [1] is 15.8 µM [rising, single point].
As for `Cc1nc(S(=O)(=O)N(C)c2ccccc2)c(C#N)c(C)c1Cl`, the concentration at half-maximal activity (AC50) is, setting by setting: under setting [2], 15.8 µM [falling, single point]; under setting [1], 25.1 µM [falling, single point].
In the case of `Cc1ccc(Nc2cc(C)nc(N3CCOCC3)n2)c(C)c1`, the AC50 runs as follows: under setting [2], 0.316 µM [rising, full curve, poor fit]; under setting [1], 0.01 µM [rising, full curve, poor fit].
Take `C[C@]12CC[C@@H]3c4ccc(O)cc4CC[C@H]3[C@@H]1CCC2OC(=O)CCC1CCCC1` (some centres undefined): the AC50 is, setting by setting: under setting [2], 12.6 µM [rising, partial curve, poor fit]; under setting [1], 0.0355 µM [falling, full curve, poor fit].
Take `COc1ccc(C2C(C(=O)N3CCN(C)CC3)c3cc(OC)c(OC)cc3C(=O)N2C)cc1` (centres undefined): the AC50 by setting is: under setting [2], 0.00316 µM [falling, full curve]; under setting [1], 0.00316 µM [falling, full curve, poor fit].
On to `CCCCCCCC/C=C\CCCCCCCC(=O)O`, for which the AC50 under setting [2] was 3.98 µM [rising, partial curve, poor fit].
On to `Cc1ccc(NC(=O)c2cc3c(s2)CCC3)cc1S(=O)(=O)N1CCOCC1`, for which the AC50 under setting [1] is 35.5 µM [rising, single point].
On the same count and under the same terms, the figure for `COc1ccc(C)cc1NS(=O)(=O)c1ccc(-c2cnc(C3CC3)o2)cc1` is 0.141 µM [rising, full curve].
Turning to `COc1ccc2c(c1)cc(C(O)c1ccccn1)n2S(=O)(=O)c1ccccc1` (centres undefined), the AC50 under setting [2] is 35.5 µM [rising, single point].
Take `Cc1ccc(C)c(Nc2ncnc3c2cnn3-c2ccc(F)cc2)c1`: the AC50 by setting is: under setting [2], 0.891 µM [falling, partial curve, poor fit]; under setting [1], 0.0126 µM [falling, full curve, poor fit].
In the case of `CC(C)(C)c1ccc(NC(=O)COC(=O)c2ccc(NS(=O)(=O)c3ccc(F)c(F)c3)cc2)cc1`, under setting [1], the AC50 is 35.5 µM [rising, single point].
In the case of `CCc1cc(=O)oc2cc3occ(-c4ccc(OC)c(F)c4)c3cc12`, the AC50 under setting [2] was 11.2 µM [falling, partial curve] and the AC50 under setting [1] is 35.5 µM [falling, partial curve].
Take `CC(OCC(O)CN(C)Cc1nc2ccccc2c(=O)[nH]1)c1ccc(Cl)cc1` (centres undefined): the AC50 under setting [2] was 3.55 µM [falling, partial curve, poor fit].
Still for that read-out and setting: the figure for `CNC(=S)N/N=C(\C)c1ccc(C)c(C)c1` is 35.5 µM [falling, single point].
For the compound `CC[n+]1c(C)sc2cc(C)ccc21`, the AC50 under setting [1] is 31.6 µM [rising, single point].
Still for that read-out and setting: the figure for `Cc1nc([N+](=O)[O-])c(Sc2nc3ccccc3n2C)n1Cc1ccccc1` is 10 µM [rising, partial curve].
In the case of `CN1/C(=C\C(=O)COC(=O)CNC(=O)c2ccc3ccccc3c2)C(C)(C)c2ccccc21`, the concentration at half-maximal activity (AC50) is 10 µM [rising, partial curve, poor fit] under setting [2] and 8.91 µM [rising, partial curve, poor fit] under setting [1].
For the compound `CC(=O)/C(N)=N/Nc1cccc(Cl)c1`, under setting [1], the AC50 is 5.62 µM [rising, single point].
For `COc1cc(NC(=O)Cn2nnc(-c3ccncc3)n2)cc(OC)c1`, the AC50 under setting [1] was 7.08 µM [rising, partial curve, poor fit].
As to `CCc1ccc(OCC(=O)Nc2ccc(N3CCN(S(C)(=O)=O)CC3)cc2)cc1`, under setting [2], the AC50 is 0.501 µM [rising, full curve, poor fit].
Consider `Cc1ccc2nc(NC(=O)CCn3cccc3)sc2c1`, for which the concentration at half-maximal activity (AC50) was 0.0794 µM [rising, full curve, poor fit] under setting [2] and 0.00447 µM [rising, full curve, poor fit] under setting [1].
On to `Cc1cc(C)cc(N2C(=O)CS(=O)(=O)C23C(=O)N(C)c2ccccc23)c1` (centres undefined), for which the half-maximal activity concentration (AC50) is, setting by setting: under setting [2], 0.0355 µM [falling, full curve, poor fit]; under setting [1], 0.0224 µM [falling, full curve].
For `O=C(Nc1ccccc1N1CCCCC1)c1ccc2nccnc2c1`, the AC50 under setting [1] was 35.5 µM [rising, single point].
As for `Cc1nc(-c2ccc(S(=O)(=O)N(C)Cc3ccccc3)cc2)co1`, the concentration at half-maximal activity (AC50) under setting [2] is 35.5 µM [falling, single point].
Regarding `COc1ccc(-c2c/c(=N\c3nc(-c4ccccc4)c(C)s3)c3ccccc3o2)cc1O`, under setting [1], the AC50 was 4.47 µM [rising, full curve].
`O=C(CSCc1ccc(Cl)cc1)N1CCN(Cc2ccc3c(c2)OCO3)CC1`: the half-maximal activity concentration (AC50) reads like this: under setting [2], 14.1 µM [rising, single point]; under setting [1], 15.8 µM [rising, partial curve].
For the compound `CCn1c(C)nc2cc(C(=O)NNC(=S)Nc3ccc(OC)cc3)ccc21`, under setting [2], the AC50 was 6.31 µM [rising, partial curve].
For `COC(=O)c1sccc1NC(=O)CSc1ccccc1N`, the half-maximal activity concentration (AC50) under setting [1] is 20 µM [rising, single point].
As to `COc1ccc(CNc2oc(-c3cccc4ccccc34)nc2C#N)cc1`, the concentration at half-maximal activity (AC50) by setting is: under setting [2], 35.5 µM [rising, single point]; under setting [1], 35.5 µM [rising, single point].
For the compound `O=C(NC1CCCCC1)c1cccc(COCC(F)(F)F)c1`, the half-maximal activity concentration (AC50) is 31.6 µM [rising, single point] under setting [2] and 35.5 µM [rising, single point] under setting [1].
